# From patent publication US6811990B1, “Methods and compositions for coupled luminescent assays” (priority 2001, dated 2004)
# System: E. coli
# Test: Colony-forming unit (CFU) tests of antibiotic-treated cultures
# Format: cell-based
# Settings: E. coli cultures plated at various dilutions
smiles,measurement,value
Nc1ccc(S(N)(=O)=O)cc1 [Sulfanilamide],toxicity by CFU assay,no toxicity by CFU assay
